The other results are listed elsewhere or left out.
Key:
Test in all cases: log2 fold change, soluble protein after heating vs DMSO (PISA); higher = thermal stabilisation; K562 lysate, 10 uM; active = over 0.2 and 3.5 SD of the protein, either way, in both replicates (recomputed)
erlotinib = compound: C#Cc1cccc(Nc2ncnc3cc(OCCOC)c(OCCOC)cc23)c1 [erlotinib]
Outline: (§1)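 A 30 min treatment with 10 μM compound was applied to crude K562 extract at 1 mg/mL protein in PBS pH 7.4 with 1 mM MgCl2. Heating for 3 min spanned 48°C-58°C, after which aliquots were pooled, adjusted to 0.5% NP-40 at 4°C and spun at 21,000xg for 90 min. TMTpro 16plex LC-MS/MS of the supernatant, with channel sums equalised, gave values recorded as log-two fold change in thermal stability against solvent controls, from duplicates.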

Amino acid sequences for entries named in this document (tags omitted). A change or cut given only in a name is not applied to a line headed by its entry.
UniProt Q16880: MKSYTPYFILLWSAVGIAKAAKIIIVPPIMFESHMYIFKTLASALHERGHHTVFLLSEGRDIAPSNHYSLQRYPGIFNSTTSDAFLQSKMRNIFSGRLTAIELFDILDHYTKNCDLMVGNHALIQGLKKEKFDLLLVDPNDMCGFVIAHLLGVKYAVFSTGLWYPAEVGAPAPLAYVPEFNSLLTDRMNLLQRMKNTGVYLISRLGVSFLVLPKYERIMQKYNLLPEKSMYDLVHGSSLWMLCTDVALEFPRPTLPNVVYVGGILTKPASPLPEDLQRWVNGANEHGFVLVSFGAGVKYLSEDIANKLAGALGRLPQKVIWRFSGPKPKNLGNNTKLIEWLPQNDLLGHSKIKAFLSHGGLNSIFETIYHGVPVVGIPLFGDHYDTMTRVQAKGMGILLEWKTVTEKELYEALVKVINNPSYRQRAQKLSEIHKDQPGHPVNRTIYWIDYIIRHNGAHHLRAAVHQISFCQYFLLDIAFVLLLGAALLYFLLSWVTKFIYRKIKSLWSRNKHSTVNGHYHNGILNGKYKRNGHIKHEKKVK
UniProt O60763: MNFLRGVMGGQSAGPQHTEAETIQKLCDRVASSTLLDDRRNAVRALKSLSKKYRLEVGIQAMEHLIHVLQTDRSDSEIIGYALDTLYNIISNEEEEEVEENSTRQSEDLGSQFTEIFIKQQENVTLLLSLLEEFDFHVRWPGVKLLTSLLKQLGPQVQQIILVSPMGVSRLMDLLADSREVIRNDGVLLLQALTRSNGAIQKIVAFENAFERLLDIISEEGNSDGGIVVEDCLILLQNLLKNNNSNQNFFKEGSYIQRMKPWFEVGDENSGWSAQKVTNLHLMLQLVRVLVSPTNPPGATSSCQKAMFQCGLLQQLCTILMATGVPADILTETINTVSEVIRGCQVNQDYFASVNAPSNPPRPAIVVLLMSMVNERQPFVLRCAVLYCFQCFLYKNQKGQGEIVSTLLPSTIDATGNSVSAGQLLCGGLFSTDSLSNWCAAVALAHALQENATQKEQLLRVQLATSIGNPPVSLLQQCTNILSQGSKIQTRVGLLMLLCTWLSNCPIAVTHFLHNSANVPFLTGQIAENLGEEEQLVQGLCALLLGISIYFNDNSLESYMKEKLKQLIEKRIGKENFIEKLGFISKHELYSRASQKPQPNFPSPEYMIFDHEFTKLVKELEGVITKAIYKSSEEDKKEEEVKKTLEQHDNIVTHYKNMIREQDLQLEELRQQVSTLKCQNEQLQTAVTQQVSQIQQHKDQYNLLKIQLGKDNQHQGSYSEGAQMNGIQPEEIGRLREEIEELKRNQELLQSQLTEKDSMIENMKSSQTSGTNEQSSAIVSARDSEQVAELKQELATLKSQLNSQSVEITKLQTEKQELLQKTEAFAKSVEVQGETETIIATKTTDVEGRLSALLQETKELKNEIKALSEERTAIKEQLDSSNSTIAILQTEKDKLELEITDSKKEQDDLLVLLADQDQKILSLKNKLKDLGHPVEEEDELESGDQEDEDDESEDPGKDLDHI
UniProt Q70J99: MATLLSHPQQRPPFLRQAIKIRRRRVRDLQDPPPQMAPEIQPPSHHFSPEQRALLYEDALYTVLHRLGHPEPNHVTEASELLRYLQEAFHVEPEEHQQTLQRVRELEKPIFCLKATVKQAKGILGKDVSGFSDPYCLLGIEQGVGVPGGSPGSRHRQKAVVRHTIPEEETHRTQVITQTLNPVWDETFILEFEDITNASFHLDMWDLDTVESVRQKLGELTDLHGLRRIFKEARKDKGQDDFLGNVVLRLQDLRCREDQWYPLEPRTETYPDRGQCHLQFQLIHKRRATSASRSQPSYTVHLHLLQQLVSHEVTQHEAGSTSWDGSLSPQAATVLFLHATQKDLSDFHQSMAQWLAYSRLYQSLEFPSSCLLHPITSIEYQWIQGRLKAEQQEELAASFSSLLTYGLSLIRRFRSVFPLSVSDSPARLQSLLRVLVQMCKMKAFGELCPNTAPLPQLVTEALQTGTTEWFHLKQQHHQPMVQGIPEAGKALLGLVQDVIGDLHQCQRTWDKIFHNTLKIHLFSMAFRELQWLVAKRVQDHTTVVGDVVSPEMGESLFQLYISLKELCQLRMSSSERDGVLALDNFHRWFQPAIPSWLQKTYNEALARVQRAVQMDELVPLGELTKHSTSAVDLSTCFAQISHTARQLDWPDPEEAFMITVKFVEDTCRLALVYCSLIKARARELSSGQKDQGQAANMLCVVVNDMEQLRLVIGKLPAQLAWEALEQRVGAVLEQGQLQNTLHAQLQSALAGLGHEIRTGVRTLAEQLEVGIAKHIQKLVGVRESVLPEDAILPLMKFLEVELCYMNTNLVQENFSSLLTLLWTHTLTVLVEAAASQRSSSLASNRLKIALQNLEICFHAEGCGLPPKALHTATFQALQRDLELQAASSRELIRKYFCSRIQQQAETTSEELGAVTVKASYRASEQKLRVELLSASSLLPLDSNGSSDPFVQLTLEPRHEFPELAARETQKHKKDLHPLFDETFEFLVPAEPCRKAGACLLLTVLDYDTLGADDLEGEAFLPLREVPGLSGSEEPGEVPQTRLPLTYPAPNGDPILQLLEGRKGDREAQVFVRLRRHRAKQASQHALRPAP
UniProt P61960, whole entry, looked up: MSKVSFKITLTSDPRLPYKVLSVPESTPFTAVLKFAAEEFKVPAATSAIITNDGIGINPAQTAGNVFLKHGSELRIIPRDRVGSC
UniProt Q9NYH9: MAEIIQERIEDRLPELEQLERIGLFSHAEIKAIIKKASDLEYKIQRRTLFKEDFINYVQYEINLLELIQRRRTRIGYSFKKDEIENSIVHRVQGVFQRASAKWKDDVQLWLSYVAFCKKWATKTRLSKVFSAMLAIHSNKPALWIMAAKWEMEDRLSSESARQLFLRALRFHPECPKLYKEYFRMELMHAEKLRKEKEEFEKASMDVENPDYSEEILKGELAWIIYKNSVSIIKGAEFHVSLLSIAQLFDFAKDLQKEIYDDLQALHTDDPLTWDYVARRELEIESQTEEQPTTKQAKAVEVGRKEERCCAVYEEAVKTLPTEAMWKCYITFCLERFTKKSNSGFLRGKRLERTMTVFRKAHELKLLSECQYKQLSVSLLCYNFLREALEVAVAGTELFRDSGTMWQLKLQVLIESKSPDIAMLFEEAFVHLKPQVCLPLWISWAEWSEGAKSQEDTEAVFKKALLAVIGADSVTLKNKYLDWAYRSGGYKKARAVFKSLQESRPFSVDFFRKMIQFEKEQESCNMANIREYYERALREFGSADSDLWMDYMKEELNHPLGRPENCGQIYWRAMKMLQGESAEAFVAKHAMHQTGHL
UniProt Q969X6: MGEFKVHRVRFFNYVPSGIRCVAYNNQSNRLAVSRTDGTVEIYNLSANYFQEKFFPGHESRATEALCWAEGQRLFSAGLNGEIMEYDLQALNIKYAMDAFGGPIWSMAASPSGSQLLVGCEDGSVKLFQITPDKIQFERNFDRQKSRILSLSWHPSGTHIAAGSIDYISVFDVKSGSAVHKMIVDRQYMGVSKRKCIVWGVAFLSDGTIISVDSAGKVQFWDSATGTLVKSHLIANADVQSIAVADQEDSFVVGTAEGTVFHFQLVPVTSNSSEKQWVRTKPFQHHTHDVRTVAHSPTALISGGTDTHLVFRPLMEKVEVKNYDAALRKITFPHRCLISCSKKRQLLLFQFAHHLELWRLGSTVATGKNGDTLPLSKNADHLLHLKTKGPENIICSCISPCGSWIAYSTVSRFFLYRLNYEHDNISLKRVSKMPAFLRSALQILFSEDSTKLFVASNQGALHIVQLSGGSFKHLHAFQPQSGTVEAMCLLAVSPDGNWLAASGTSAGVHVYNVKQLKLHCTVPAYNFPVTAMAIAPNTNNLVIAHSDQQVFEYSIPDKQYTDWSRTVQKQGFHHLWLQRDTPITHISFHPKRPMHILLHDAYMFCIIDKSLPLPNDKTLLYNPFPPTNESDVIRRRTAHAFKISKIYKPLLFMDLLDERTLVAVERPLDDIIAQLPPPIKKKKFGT
UniProt Q9H9C1: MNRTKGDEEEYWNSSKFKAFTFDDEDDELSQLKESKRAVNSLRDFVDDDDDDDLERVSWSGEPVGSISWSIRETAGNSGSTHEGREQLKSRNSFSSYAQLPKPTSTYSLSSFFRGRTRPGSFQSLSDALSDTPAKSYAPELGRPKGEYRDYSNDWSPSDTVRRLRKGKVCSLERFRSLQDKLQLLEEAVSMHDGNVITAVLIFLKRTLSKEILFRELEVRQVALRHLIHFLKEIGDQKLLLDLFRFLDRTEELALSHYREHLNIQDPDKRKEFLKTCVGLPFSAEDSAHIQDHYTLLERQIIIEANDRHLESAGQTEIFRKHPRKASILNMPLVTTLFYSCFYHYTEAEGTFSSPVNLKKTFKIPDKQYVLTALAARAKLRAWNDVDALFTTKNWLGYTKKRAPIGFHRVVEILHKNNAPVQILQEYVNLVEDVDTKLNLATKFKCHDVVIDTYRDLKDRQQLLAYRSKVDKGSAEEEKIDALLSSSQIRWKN
UniProt P14927: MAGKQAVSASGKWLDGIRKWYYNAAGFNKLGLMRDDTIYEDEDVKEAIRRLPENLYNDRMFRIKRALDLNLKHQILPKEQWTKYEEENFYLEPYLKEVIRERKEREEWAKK
UniProt Q9P0L0: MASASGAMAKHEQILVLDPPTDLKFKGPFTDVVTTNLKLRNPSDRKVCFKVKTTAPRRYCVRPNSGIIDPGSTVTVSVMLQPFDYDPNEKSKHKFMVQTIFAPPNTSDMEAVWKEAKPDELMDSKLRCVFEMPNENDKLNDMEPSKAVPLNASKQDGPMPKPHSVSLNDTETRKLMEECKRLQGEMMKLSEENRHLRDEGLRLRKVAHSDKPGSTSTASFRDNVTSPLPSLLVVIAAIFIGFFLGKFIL
UniProt P22415: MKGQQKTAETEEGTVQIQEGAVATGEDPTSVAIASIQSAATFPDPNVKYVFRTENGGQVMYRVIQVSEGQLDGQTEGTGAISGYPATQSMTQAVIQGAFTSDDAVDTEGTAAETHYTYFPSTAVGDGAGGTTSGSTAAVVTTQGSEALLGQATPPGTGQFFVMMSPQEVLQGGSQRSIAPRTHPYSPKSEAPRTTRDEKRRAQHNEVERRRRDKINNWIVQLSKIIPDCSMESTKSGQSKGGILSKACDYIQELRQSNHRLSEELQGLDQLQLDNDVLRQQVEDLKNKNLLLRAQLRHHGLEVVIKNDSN
UniProt Q96JH7: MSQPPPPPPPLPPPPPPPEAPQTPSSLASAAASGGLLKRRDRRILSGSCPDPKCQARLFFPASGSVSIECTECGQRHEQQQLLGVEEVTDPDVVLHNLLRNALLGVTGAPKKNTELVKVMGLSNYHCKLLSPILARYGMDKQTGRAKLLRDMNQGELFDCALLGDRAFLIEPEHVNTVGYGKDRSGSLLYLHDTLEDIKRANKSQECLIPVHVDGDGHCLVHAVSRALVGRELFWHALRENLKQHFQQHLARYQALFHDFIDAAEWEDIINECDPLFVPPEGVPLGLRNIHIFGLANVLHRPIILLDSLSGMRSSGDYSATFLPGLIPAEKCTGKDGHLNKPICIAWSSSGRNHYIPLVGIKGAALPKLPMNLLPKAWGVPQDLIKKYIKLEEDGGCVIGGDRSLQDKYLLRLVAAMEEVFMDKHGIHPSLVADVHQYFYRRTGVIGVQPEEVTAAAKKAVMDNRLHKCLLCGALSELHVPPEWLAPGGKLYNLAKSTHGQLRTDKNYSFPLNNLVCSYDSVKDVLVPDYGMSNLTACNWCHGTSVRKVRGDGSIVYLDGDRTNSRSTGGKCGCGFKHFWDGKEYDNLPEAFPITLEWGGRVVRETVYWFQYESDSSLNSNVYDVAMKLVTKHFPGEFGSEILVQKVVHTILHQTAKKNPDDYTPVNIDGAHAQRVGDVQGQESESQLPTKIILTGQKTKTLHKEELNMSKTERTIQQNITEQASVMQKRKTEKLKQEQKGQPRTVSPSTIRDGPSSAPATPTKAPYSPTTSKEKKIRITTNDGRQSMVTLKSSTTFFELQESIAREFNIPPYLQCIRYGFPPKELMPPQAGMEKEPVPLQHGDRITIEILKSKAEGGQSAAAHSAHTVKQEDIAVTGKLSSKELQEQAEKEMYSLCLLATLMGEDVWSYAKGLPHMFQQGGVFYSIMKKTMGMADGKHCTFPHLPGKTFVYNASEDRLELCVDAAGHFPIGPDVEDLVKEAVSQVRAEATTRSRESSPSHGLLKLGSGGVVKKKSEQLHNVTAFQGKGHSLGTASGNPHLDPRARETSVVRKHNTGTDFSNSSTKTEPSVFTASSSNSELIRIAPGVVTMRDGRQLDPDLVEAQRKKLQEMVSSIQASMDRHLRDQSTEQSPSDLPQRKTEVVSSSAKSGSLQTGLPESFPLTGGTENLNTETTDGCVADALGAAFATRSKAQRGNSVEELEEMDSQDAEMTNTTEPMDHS
UniProt P51809, whole entry, looked up: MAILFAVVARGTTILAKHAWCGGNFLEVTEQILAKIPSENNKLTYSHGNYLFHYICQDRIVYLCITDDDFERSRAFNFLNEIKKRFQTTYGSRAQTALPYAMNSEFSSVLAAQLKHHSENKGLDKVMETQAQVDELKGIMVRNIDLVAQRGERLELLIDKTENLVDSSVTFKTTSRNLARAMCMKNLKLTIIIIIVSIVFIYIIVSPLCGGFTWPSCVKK

[1] = compound: C/C(=N\NC(=O)C1=CC(=CC=C1)S(=O)(=O)N2CCOCC2)/C3=C(C=CC(=C3)Cl)O
Outline: as §1

[2] = compound: C1=CC(=CC=C1C2=NC3=C(N2)C=C(C=C3)C(=O)N)OC4=CC=C(C=C4)Cl
Outline: as §1

[3] = compound: C1=CC2=C(C=CC(=C2)/C=C\3/C(=O)NC(=NCC4=CC=CS4)S3)N=C1
Outline: as §1

[4] = compound: C1=CC2=NC=CN=C2C=C1/C=C/3\C(=O)NC(=O)S3
Outline: as §1

[5] = compound: C1=CC=C(C=C1)C2=NC(=C(N2)C3=CC=NC=C3)C4=CC(=C(C=C4)Cl)O
Outline: as §1

[6] = compound: C1=CC=C2C(=C1)C3=NNC4=CC=CC(=C43)C2=O
Outline: as §1

[7] = compound: C1CCN(C1)C(=O)NC2=CC=CC(=C2)NC3=NC=C(C(=N3)NCCC4=CN=CN4)Br
Outline: as §1

[8] = compound: C1CN(CCC1(CC2=CC=C(C=C2)Cl)N)C3=NC=NC4=C3C=CN4
Outline: as §1

IRAK-1-4 Inhibitor I = compound: C1COCCN1CCN2C3=CC=CC=C3N=C2NC(=O)C4=CC(=CC=C4)[N+](=O)[O-] [IRAK-1-4 Inhibitor I]
Outline: as §1

Measured: log2 fold change

USF2 (UniProt Q15853)
inactive: erlotinib 0.028 | [1] -0.017 | [2] 0.114 | [3] 0.036 | [4] -0.046 | [5] -0.03 | [6] -0.006 | [7] -0.018 | [8] -0.102 | IRAK-1-4 Inhibitor I -0.003

UGT8 (UniProt Q16880)
inactive: erlotinib 0.039 | [1] -0.012 | [2] 0.029 | [3] 0.008 | [4] -0.179 | [5] 0.237 | [6] -0.084 | [7] -0.035 | [8] 0.053 | IRAK-1-4 Inhibitor I 0.232

USP47 isoform 4 (UniProt Q96K76)
inactive: erlotinib -0.011 | [1] -0.012 | [2] -0.002 | [3] 0.002 | [4] -0.016 | [5] 0.002 | [6] 0.004 | [7] -0.012 | [8] -0.006 | IRAK-1-4 Inhibitor I -0.012

UFL1 (UniProt O94874)
inactive: erlotinib -0.003 | [1] -0.009 | [2] 0.029 | [3] 0.033 | [4] 0.021 | [5] -0.018 | [6] 0.005 | [7] -0.016 | [8] 0.032 | IRAK-1-4 Inhibitor I -0.007

USO1 (UniProt O60763)
inactive: erlotinib -0.074 | [1] 0.219 | [2] 0.089 | [3] 0.029 | [4] -0.342 | [5] -0.02 | [6] 0.015 | [7] 0.08 | [8] -0.059 | IRAK-1-4 Inhibitor I 0.078

UNC13D (UniProt Q70J99)
inactive: erlotinib 0.019 | [1] 0.023 | [2] -0.049 | [3] 0.02 | [4] 0.025 | [5] -0.007 | [6] -0.009 | [7] 0.005 | [8] 0.013 | IRAK-1-4 Inhibitor I 0.022

USP5 isoform 2 (UniProt P45974)
inactive: erlotinib -0.005 | [1] -0.006 | [2] 0.01 | [3] -0.005 | [4] 0.004 | [5] -0.009 | [6] -0.008 | [7] 0.003 | [8] -0.01 | IRAK-1-4 Inhibitor I -0.016

USP48 (UniProt Q86UV5)
inactive: erlotinib 0.022 | [1] 0.001 | [2] -0.015 | [3] -0.051 | [4] 0.006 | [5] 0.001 | [6] 0.049 | [7] -0.033 | [8] 0.013 | IRAK-1-4 Inhibitor I -0.026

UFM1 (UniProt P61960)
inactive: erlotinib 0.035 | [1] 0.078 | [2] -0.003 | [3] 0.085 | [4] 0.029 | [5] -0.013 | [6] 0.123 | [7] 0.066 | [8] 0.013 | IRAK-1-4 Inhibitor I -0.009

UTP6 (UniProt Q9NYH9)
inactive: erlotinib 0.004 | [1] -0.001 | [2] -0.035 | [3] 0.109 | [4] 0.185 | [5] 0.012 | [6] -0.105 | [7] -0.016 | [8] 0.017 | IRAK-1-4 Inhibitor I -0.026

USP14 (UniProt P54578)
inactive: erlotinib 0.013 | [1] -0.023 | [2] -0.002 | [3] 0.007 | [4] 0 | [5] 0.005 | [6] -0.021 | [7] -0.01 | [8] -0.001 | IRAK-1-4 Inhibitor I -0.008

ULBP2 (UniProt Q9BZM5)
inactive: erlotinib 0.017 | [1] 0.061 | [2] -0.125 | [3] 0.014 | [4] 0.001 | [5] 0.018 | [6] 0.018 | [7] -0.004 | [8] -0.048 | IRAK-1-4 Inhibitor I 0.025

UTP4 (UniProt Q969X6)
inactive: erlotinib -0.032 | [1] -0.109 | [2] -0.006 | [3] -0.042 | [4] -0.007 | [5] -0.003 | [6] -0.065 | [7] -0.003 | [8] 0 | IRAK-1-4 Inhibitor I -0.053

ULBP1 (UniProt Q9BZM6)
inactive: erlotinib 0.036 | [1] 0.057 | [2] -0.008 | [3] 0.004 | [4] -0.007 | [5] 0.076 | [6] 0.027 | [7] -0.024 | [8] 0.035 | IRAK-1-4 Inhibitor I 0.023

Reprinted from the entries so far (two entries):
UTP4 (UniProt Q969X6)
inactive: erlotinib -0.032 | [1] -0.109 | [2] -0.006 | [3] -0.042 | [4] -0.007 | [5] -0.003 | [6] -0.065 | [7] -0.003 | [8] 0 | IRAK-1-4 Inhibitor I -0.053

ULBP1 (UniProt Q9BZM6)
inactive: erlotinib 0.036 | [1] 0.057 | [2] -0.008 | [3] 0.004 | [4] -0.007 | [5] 0.076 | [6] 0.027 | [7] -0.024 | [8] 0.035 | IRAK-1-4 Inhibitor I 0.023

(listing goes on)

VDAC2 isoform 2 (UniProt P45880)
inactive: erlotinib 0.015 | [1] 0.038 | [2] -0.017 | [3] -0.004 | [4] -0.005 | [5] 0.002 | [6] -0.006 | [7] 0.019 | [8] 0.013 | IRAK-1-4 Inhibitor I 0.021

VANGL1 (UniProt Q8TAA9)
inactive: erlotinib 0 | [1] -0.043 | [2] -0.088 | [3] 0.022 | [4] -0.149 | [5] -0.377 | [6] -0.01 | [7] -0.072 | [8] 0.004 | IRAK-1-4 Inhibitor I 0.182

VIPAS39 (UniProt Q9H9C1)
inactive: erlotinib -0.005 | [1] 0.001 | [2] 0.083 | [3] 0.024 | [4] 0.016 | [5] 0.09 | [6] 0.022 | [7] 0 | [8] 0.072 | IRAK-1-4 Inhibitor I 0.023

UQCRB (UniProt P14927)
inactive: erlotinib -0.006 | [1] -0.032 | [2] 0.007 | [3] -0.019 | [4] -0.001 | [5] 0.001 | [6] 0.037 | [7] 0.005 | [8] 0.032 | IRAK-1-4 Inhibitor I -0.007

VAPA isoform 2 (UniProt Q9P0L0)
inactive: erlotinib 0.003 | [1] -0.015 | [2] 0.046 | [3] -0.007 | [4] 0.003 | [5] -0.018 | [6] -0.108 | [7] -0.015 | [8] 0.019 | IRAK-1-4 Inhibitor I 0.001

UEVLD (UniProt Q8IX04)
inactive: erlotinib -0.032 | [1] 0.06 | [2] 0.022 | [3] 0.023 | [4] -0.018 | [5] -0.058 | [6] -0.059 | [7] 0.105 | [8] 0.112 | IRAK-1-4 Inhibitor I -0.003

UPF1 (UniProt Q92900)
inactive: erlotinib 0.012 | [1] -0.044 | [2] 0.026 | [3] 0.007 | [4] -0.02 | [5] 0.001 | [6] 0.006 | [7] -0.015 | [8] 0.003 | IRAK-1-4 Inhibitor I 0.007

USF1 (UniProt P22415)
inactive: erlotinib -0.027 | [1] -0.007 | [2] -0.014 | [3] 0.016 | [4] -0.03 | [5] -0.076 | [6] -0.102 | [7] -0.033 | [8] -0.009 | IRAK-1-4 Inhibitor I 0.001

USP3 (UniProt Q9Y6I4)
inactive: erlotinib -0.001 | [1] 0.05 | [2] 0.033 | [3] 0.031 | [4] 0.018 | [5] 0.011 | [6] 0.014 | [7] -0.037 | [8] 0.035 | IRAK-1-4 Inhibitor I -0.044

VCPIP1 (UniProt Q96JH7)
inactive: erlotinib -0.054 | [1] -0.04 | [2] -0.002 | [3] 0.053 | [4] -0.037 | [5] 0.041 | [6] 0.006 | [7] 0 | [8] 0.038 | IRAK-1-4 Inhibitor I -0.035

UTP18 (UniProt Q9Y5J1)
inactive: erlotinib 0.055 | [1] 0.072 | [2] 0.051 | [3] -0.056 | [4] 0.129 | [5] 0.038 | [6] -0.068 | [7] -0.122 | [8] 0.107 | IRAK-1-4 Inhibitor I -0.031

VEZT (UniProt F8W8C2)
inactive: erlotinib 0.018 | [1] 0.03 | [2] -0.069 | [3] -0.139 | [4] 0.038 | [5] 0.046 | [6] -0.136 | [7] -0.087 | [8] 0.076 | IRAK-1-4 Inhibitor I -0.001

UQCC1 (UniProt Q9NVA1)
inactive: erlotinib 0.02 | [1] 0.033 | [2] -0.015 | [3] 0.008 | [4] -0.012 | [5] 0.001 | [6] -0.044 | [7] -0.017 | [8] 0.015 | IRAK-1-4 Inhibitor I 0.016

USP7 (UniProt Q93009)
inactive: erlotinib 0.004 | [1] 0.001 | [2] -0.005 | [3] -0.005 | [4] -0.013 | [5] -0.017 | [6] -0.031 | [7] -0.002 | [8] -0.019 | IRAK-1-4 Inhibitor I -0.016

VAMP7 (UniProt P51809)
inactive: erlotinib -0.014 | [1] 0.01 | [2] -0.002 | [3] 0.003 | [4] 0 | [5] -0.01 | [6] -0.02 | [7] -0.009 | [8] 0.044 | IRAK-1-4 Inhibitor I -0.007

USP13 (UniProt Q92995)
inactive: erlotinib -0.026 | [1] 0.005 | [2] 0.001 | [3] 0.036 | [4] 0.021 | [5] 0.009 | [6] 0.016 | [7] -0.011 | [8] -0.007 | IRAK-1-4 Inhibitor I -0.003

Source: the supplement of paper PMC10849652
